Total and Unique data for four molecules are collected here from US12729225B2, “Non-canonical SWI/SNF complex and uses thereof” (Dana-Farber Cancer Institute, Inc., priority 2018, dated 2026).

B1: ZCCHC17 (protein, UniProt Q9NP64 1-241, looked up)
Zinc finger CCHC …: MNSGRPETMENLPALYTIFQGEVAMVTDYGAFIKIPGCRKQGLVHRTHMSSCRVDKPSEIVDVGDKVWVKLIGREMKNDRIKVSLSMKVVNQGTGKDLDPNNVIIEQEERRRRSFQDYTGQKITLEAVLNTTCKKCGCKGHFAKDCFMQPGGTKYSLIPDEEEEKEEAKSAEFEKPDPTRNPSRKRKKEKKKKKHRDRKSSDSDSSDSESDTGKRARHTSKDSKAAKKKKKKKKHKKKHKE
B2: TRA2B (protein, UniProt P62995 2-288, looked up)
Transformer-2 protein homolog …: SDSGEQNYGERESRSASRSGSAHGSGKSARHTPARSRSKEDSRRSRSKSRSRSESRSRSRRSSRRHYTRSRSRSRSHRRSRSRSYSRDYRRRHSHSHSPMSTRRRHVGNRANPDPNCCLGVFGLSLYTTERDLREVFSKYGPIADVSIVYDQQSRRSRGFAFVYFENVDDAKEAKERANGMELDGRRIRVDFSITKRPHTPTPGIYMGRPTYGSSRRRDYYDRGYDRGYDDRDYYSRSYRGGGGGGGGWRAAQDRDQIYRRRSPSPYYSRGGYRSRSRSRSYSPRRY
B3: CDC5L (protein, UniProt Q99459 1-802, looked up)
Cell division cycle 5-like …: MPRIMIKGGVWRNTEDEILKAAVMKYGKNQWSRIASLLHRKSAKQCKARWYEWLDPSIKKTEWSREEEEKLLHLAKLMPTQWRTIAPIIGRTAAQCLEHYEFLLDKAAQRDNEEETTDDPRKLKPGEIDPNPETKPARPDPIDMDEDELEMLSEARARLANTQGKKAKRKAREKQLEEARRLAALQKRRELRAAGIEIQKKRKRKRGVDYNAEIPFEKKPALGFYDTSEENYQALDADFRKLRQQDLDGELRSEKEGRDRKKDKQHLKRKKESDLPSAILQTSGVSEFTKKRSKLVLPAPQISDAELQEVVKVGQASEIARQTAEESGITNSASSTLLSEYNVTNNSVALRTPRTPASQDRILQEAQNLMALTNVDTPLKGGLNTPLHESDFSGVTPQRQVVQTPNTVLSTPFRTPSNGAEGLTPRSGTTPKPVINSTPGRTPLRDKLNINPEDGMADYSDPSYVKQMERESREHLRLGLLGLPAPKNDFEIVLPENAEKELEEREIDDTYIEDAADVDARKQAIRDAERVKEMKRMHKAVQKDLPRPSEVNETILRPLNVEPPLTDLQKSEELIKKEMITMLHYDLLHHPYEPSGNKKGKTVGFGTNNSEHITYLEHNPYEKFSKEELKKAQDVLVQEMEVVKQGMSHGELSSEAYNQVWEECYSQVLYLPGQSRYTRANLASKKDRIESLEKRLEINRGHMTTEAKRAAKMEKKMKILLGGYQSRAMGLMKQLNDLWDQIEQAHLELRTFEELKKHEDSAIPRRLECLKEDVQRQQEREKELQHRYADLLLEKETLKSKF
B4: HM13 (protein, UniProt Q8TCT9 1-377, looked up)
Signal peptide peptidase: MDSALSDPHNGSAEAGGPTNSTTRPPSTPEGIALAYGSLLLMALLPIFFGALRSVRCARGKNASDMPETITSRDAARFPIIASCTLLGLYLFFKIFSQEYINLLLSMYFFVLGILALSHTISPFMNKFFPASFPNRQYQLLFTQGSGENKEEIINYEFDTKDLVCLGLSSIVGVWYLLRKHWIANNLFGLAFSLNGVELLHLNNVSTGCILLGGLFIYDVFWVFGTNVMVTVAKSFEAPIKLVFPQDLLEKGLEANNFAMLGLGDVVIPGIFIALLLRFDISLKKNTHTYFYTSFAAYIFGLGLTIFIMHIFKHAQPALLYLVPACIGFPVLVALAKGEVTEMFSYEESNPKDPAAVTESKEGTEASASKGLEKKEK

The first data set deals with mSWI/SNF complexes. Put plainly: mSWI/SNF complex purification with HA-tagged baits and mass spectrometry (peptide counts). More on the design: species or system human. Particulars: 293_HA-BRD7 bait purification, mass spectrometry; total peptides per co-purified protein.
For the molecule B1, the Total is reported as 3.

B2 gave a Total of 2.

In the case of B3, the Total is listed as 3.

For the molecule B4, the Total stood at 3.

Still in this data set, the particulars now being: 293_HA-BRD7 bait purification, mass spectrometry; unique peptides per co-purified protein.
B1: the Unique is 2.

Take B2: the Unique is listed as 2.

In the case of B3, the Unique is 2.

B4 yielded a Unique of 2.
